One assay addresses HSF1 (UniProt Q00613). The assay can be described thus: DAPPL (digital affinity profiling via proximity ligation, sequencing). As to conditions: 10 mM Tris-HCl pH 7.5, 50 mM NaCl, 1 mM DTT, 4% glycerol, room temperature, 30 min; GST-TFs on glutathione beads, 16-mer random dsDNA library, 0.1% …; high values mean tight binding; double strand, one strand shown; scale: fold enrichment (6-mer frequency, TF over GST control).

The chains behind the UniProt entries cited, without tags or fusion partners. Where a name states a change or a piece, a line headed by the entry shows the natural chain unless it says otherwise.
UniProt Q00613: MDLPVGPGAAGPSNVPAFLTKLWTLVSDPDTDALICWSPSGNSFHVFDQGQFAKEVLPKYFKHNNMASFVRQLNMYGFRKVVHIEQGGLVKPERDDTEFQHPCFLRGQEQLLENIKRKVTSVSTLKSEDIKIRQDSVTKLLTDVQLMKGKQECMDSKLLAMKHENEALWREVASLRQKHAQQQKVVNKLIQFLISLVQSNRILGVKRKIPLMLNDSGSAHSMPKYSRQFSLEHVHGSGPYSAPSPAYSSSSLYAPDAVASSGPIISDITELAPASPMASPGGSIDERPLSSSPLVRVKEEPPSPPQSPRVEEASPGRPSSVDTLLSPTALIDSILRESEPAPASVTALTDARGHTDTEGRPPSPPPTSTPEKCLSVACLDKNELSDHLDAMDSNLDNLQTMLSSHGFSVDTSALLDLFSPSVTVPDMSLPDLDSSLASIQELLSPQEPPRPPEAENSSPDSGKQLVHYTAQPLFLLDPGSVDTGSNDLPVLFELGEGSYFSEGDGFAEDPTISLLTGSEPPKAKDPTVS

The target of the next assay is T1, ELF2 (UniProt Q15723).
T1 sequence: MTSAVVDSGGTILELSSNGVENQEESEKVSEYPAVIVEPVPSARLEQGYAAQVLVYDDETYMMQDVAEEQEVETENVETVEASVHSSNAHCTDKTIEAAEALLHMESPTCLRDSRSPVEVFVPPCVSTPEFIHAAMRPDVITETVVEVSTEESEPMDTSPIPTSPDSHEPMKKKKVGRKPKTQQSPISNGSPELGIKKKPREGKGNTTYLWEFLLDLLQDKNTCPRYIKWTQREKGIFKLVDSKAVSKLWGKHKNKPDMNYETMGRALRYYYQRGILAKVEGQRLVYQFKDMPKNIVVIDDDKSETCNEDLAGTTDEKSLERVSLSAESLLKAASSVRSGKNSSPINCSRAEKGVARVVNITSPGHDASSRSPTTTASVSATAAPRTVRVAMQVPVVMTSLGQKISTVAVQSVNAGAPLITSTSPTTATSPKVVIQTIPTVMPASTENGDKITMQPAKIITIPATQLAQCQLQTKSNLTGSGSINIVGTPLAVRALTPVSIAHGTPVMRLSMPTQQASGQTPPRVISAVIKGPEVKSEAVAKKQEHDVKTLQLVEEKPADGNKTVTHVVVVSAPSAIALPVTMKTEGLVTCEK
Described as above. As to conditions: 10 mM Tris-HCl pH 7.5, 50 mM NaCl, 1 mM DTT, 4% glycerol, room temperature, 30 min; GST-TFs on glutathione beads, 16-mer random dsDNA library, 0.1% …; high values mean tight binding; double strand, one strand shown; scale: fold enrichment (6-mer frequency, TF over GST control).

This passage reports binding signal results from article PMC7862700.

The entries are a selection whose mix differs from that of the whole data set. For part of these data: At the low end of the ranking, values are background and their order means little. The list shows a part of the results. For part of these data: Construct or isoform of the protein are uncertain.

Consider CCTGCT, for which the binding signal in the assay with HSF1 came out at 1.34; with ELF2, 1.66.
For AGTGCC the same measures were 0.726 and 1.01.
For TCCGGT the same measures were 1.09 and 4.89.
The corresponding values for CCTGAC are 1.2 and 1.5.
In the case of GACCCC, the binding signal with HSF1 is 0.67; in the assay with ELF2 it was 0.921.
As to AACGCC, the figures for the binding signal with HSF1 and with ELF2 were 0.963 and 1.03, respectively.
Turning to ACCGGC, the values for the binding signal with HSF1 and with ELF2 were 0.919 and 1.11, respectively.
Turning to AGGTTT, the binding signal stood at 1.04 with HSF1 and 0.977 with ELF2.
For AATTAC the same measures were 1.43 and 1.33.
CCGGAC: the binding signal with HSF1 stood at 0.841; with ELF2, 1.75.
With AGCTTA, the binding signal with HSF1 was 1.94; in the assay with ELF2 it was 1.13.
Take GCAGGT: the binding signal was 0.753 with HSF1 and 0.852 with ELF2.
For CATAAC the same measures were 0.916 and 1.15.
In the case of CCCGCG, the binding signal with HSF1 stood at 0.844; in the assay with ELF2 it was 0.913.
The corresponding values for TCGTCC are 0.885 and 0.965.
For TAAGGA the same measures were 0.944 and 0.985.
Consider CTGGGG, for which the values for the binding signal with HSF1 and with ELF2 were 0.784 and 0.726, respectively.
The corresponding values for AGCTTG are 0.935 and 0.919.
The corresponding values for ACCCAT are 1.05 and 1.2.
The corresponding values for AGTTAT are 0.832 and 0.9.
For the sequence GCCTGC, the binding signal in the assay with HSF1 was 0.879; in the assay with ELF2 it was 1.01.
For CCGGTG the same measures were 0.573 and 1.11.
As for GCTTGT, the binding signal with HSF1 amounted to 0.965; with ELF2 it was 1.12.
For TCAAAG the same measures were 1.17 and 1.03.
For ATCGCA the same measures were 1.03 and 0.985.
For CTTCCC the same measures were 1.55 and 2.58.
AAACCT: the binding signal turned out to be 1.15 with HSF1 and 1.07 with ELF2.
For the sequence CCAACC, the binding signal with HSF1 was 0.791; in the assay with ELF2, 1.05.
In the case of ACCTCA, the binding signal in the assay with HSF1 came out at 0.992; with ELF2, 1.13.
For GCAACC, the values for the binding signal with HSF1 and with ELF2 were 0.795 and 1.04, respectively.
In the case of GCCCTC, the figures for the binding signal with HSF1 and with ELF2 were 0.987 and 1.07, respectively.
For CCCCCC the same measures were 0.897 and 1.03.
The corresponding values for CCCGGC are 0.918 and 1.12.
For AATTGA the same measures were 1.05 and 1.17.
In the case of ACGCGC, the binding signal with HSF1 was 0.944; with ELF2, 0.987.
For GATAGT the same measures were 0.783 and 0.823.
The corresponding values for ACCCGT are 0.741 and 0.819.
The corresponding values for GCGTAT are 0.881 and 0.983.
With AGAACC, the figures for the binding signal in the assay with HSF1 and with ELF2 were 1.55 and 0.936, respectively.
The corresponding values for AGAAGA are 1.68 and 0.924.
The corresponding values for TGTACC are 1.03 and 1.29.
For TAGAAG the same measures were 2.77 and 1.11.
For CATAGC, the binding signal with HSF1 was found to be 0.786; in the assay with ELF2 it was 0.917.
Regarding GGAAGA, the figures for the binding signal in the assay with HSF1 and with ELF2 were 0.884 and 1.68, respectively.
The corresponding values for ACACCC are 0.898 and 1.11.
For the sequence CCAAGC, the binding signal in the assay with HSF1 was 0.951; in the assay with ELF2, 1.01.
For the sequence TACGCG, the binding signal with HSF1 was determined as 1.17; with ELF2, 1.13.
Take TGTTAG: the binding signal with HSF1 was 0.897; in the assay with ELF2, 0.936.
For CGCTAA the same measures were 1.09 and 0.932.
The corresponding values for CCGACG are 1.02 and 1.2.
The corresponding values for TCCCCG are 1.16 and 1.2.
Regarding TTCACA, the binding signal with HSF1 was 1.04; in the assay with ELF2, 1.14.
For GTGGCA, the binding signal in the assay with HSF1 turned out to be 0.777; in the assay with ELF2, 0.951.
As for GTGCCT, the binding signal with HSF1 was 0.827; with ELF2 it was 0.999.
The corresponding values for CCGTCA are 0.968 and 1.18.
For the sequence GTTGCC, the binding signal with HSF1 came out at 0.748; in the assay with ELF2 it was 0.935.
As to CATTTG, the binding signal in the assay with HSF1 worked out at 1.13; in the assay with ELF2, 1.18.
With CACCAC, the binding signal turned out to be 0.822 with HSF1 and 1.12 in the assay with ELF2.
As to AAAAAT, the binding signal amounted to 1.5 with HSF1 and 1.34 with ELF2.
The corresponding values for TAATCC are 4.27 and 1.18.
The corresponding values for TGTCCC are 0.984 and 1.23.
The corresponding values for CGTCAT are 0.798 and 0.926.
As for ACCTCC, the results for the binding signal with HSF1 and with ELF2 were 1.11 and 1.4, respectively.
The corresponding values for CGGGCT are 0.887 and 0.998.
As to ACGTCA, the results for the binding signal with HSF1 and with ELF2 were 0.757 and 0.939, respectively.
For GGCAGC the same measures were 0.756 and 0.925.
The corresponding values for TGGTGA are 0.867 and 0.904.
For TCAATT the same measures were 1.1 and 1.17.
Regarding ACAACA, the binding signal with HSF1 is 0.976; with ELF2, 1.25.
The corresponding values for GGCCTT are 1.05 and 1.11.
Regarding GCCATT, the binding signal worked out at 0.76 with HSF1 and 0.95 in the assay with ELF2.
For GCTACT the same measures were 1.07 and 1.29.
For CACCTC the same measures were 0.911 and 1.07.
With CAAAGT, the binding signal came to 0.879 with HSF1 and 0.916 with ELF2.
As for TGCCAT, the binding signal was 0.909 with HSF1 and 1.06 in the assay with ELF2.
Consider CCCATC, for which the binding signal was determined as 0.895 in the assay with HSF1 and 1.13 with ELF2.
For CCCGTC the same measures were 0.915 and 1.04.
The corresponding values for CACCAA are 0.893 and 0.997.
For AGGAAC the same measures were 0.901 and 1.2.
For AATGTT, the binding signal stood at 2.33 with HSF1 and 1.5 in the assay with ELF2.
TTTGTC: the binding signal with HSF1 was found to be 1.11; in the assay with ELF2 it was 1.25.
Consider ACAGTT, for which the binding signal in the assay with HSF1 was 0.713; with ELF2 it was 0.847.
The corresponding values for CGCCGG are 0.677 and 1.05.
For the sequence TGATAA, the results for the binding signal in the assay with HSF1 and in the assay with ELF2 were 1.2 and 0.997, respectively.
Turning to ATTATA, the binding signal worked out at 2.05 with HSF1 and 1.29 with ELF2.
The corresponding values for ACACTG are 0.943 and 1.01.
For TCCTTA the same measures were 1.54 and 1.7.
For AATATA the same measures were 1.38 and 1.38.
Turning to CCAAAT, the binding signal with HSF1 and with ELF2 was 1.02 in each case.
For the sequence TGTCGC, the binding signal worked out at 0.683 with HSF1 and 1 with ELF2.
With TCATTA, the figures for the binding signal with HSF1 and in the assay with ELF2 were 1.18 and 1.05, respectively.
With TTATTA, the binding signal with HSF1 was 1.75; with ELF2 it was 1.13.
For ACACCT the same measures were 0.875 and 1.03.
Take TGCCGG: the binding signal worked out at 0.718 with HSF1 and 1.2 with ELF2.
The corresponding values for TAGGTA are 1.03 and 0.954.
CCTGGC: the values for the binding signal with HSF1 and with ELF2 were 0.79 and 1.01, respectively.
For CGTTGC the same measures were 0.874 and 1.08.
The corresponding values for CGCCAT are 0.76 and 0.984.
For TTAGGT the same measures were 1.28 and 1.05.
Regarding GGGTTC, the binding signal in the assay with HSF1 turned out to be 0.999; with ELF2, 1.13.
For ACCCAC the same measures were 0.973 and 1.1.
As to CGAATG, the binding signal with HSF1 stood at 1.5; in the assay with ELF2 it was 0.99.
For AAAGGG the same measures were 0.982 and 1.12.
For CCTTTA the same measures were 1.31 and 1.32.
Regarding CCATCA, the results for the binding signal with HSF1 and with ELF2 were 0.998 and 1.09, respectively.
With CACCGC, the binding signal with HSF1 was found to be 0.797; with ELF2 it was 0.991.
Regarding GACCGC, the values for the binding signal in the assay with HSF1 and with ELF2 were 0.733 and 0.875, respectively.
The corresponding values for ACGAAA are 1.44 and 1.15.
Take CGCGTT: the values for the binding signal with HSF1 and with ELF2 were 0.903 and 1.05, respectively.
On to TAACGT, for which the binding signal was 0.967 with HSF1 and 0.96 in the assay with ELF2.
With CGAGGT, the binding signal with HSF1 is 0.912; with ELF2 it was 0.917.
In the case of ACCTTC, the binding signal worked out at 2.87 in the assay with HSF1 and 2.01 with ELF2.
GGGGCT: the binding signal in the assay with HSF1 was determined as 0.949; with ELF2, 0.981.
As for CGGCAA, the binding signal is 0.78 with HSF1 and 0.938 with ELF2.
